{"source": "PubChem BioAssay AID504804 (Drosophila RNAi Screening Center, 2011)", "assay": "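Knock-downs shielding fly cells from apoptosis caused by DNA damage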 (primary screen)", "cell system": "Drosophila Kc cells", "reagents": "long dsRNA against Drosophila genes, 0.5 µg dsRNA per well", "time to read-out": "96 h (48 h knock-down, then 48 h drug)", "challenge": "doxorubicin 5 µg/ml for 48 h, added 48 h after dsRNA", "measured": "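Luminescent ATP counts per replicate, not normalised, reflecting viable cells after 48 h dsRNA knock-down followed by 48 h of 5 µg/ml doxorubicin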", "scale": "raw ATP luminescence: higher = more viable cells, protection from doxorubicin", "hit rule": "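z-score of 2 or more over plate mean in both duplicates, retained only when retests and separate dsRNAs confirm the protection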", "note": "The screen tested about 19,000 reagents; shown is an unselected part of those that have a named target and a result. Of all reagents, 47 (0.25%) are marked active. 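Signals are raw, not normalised; exact z-scores behind calls not deposited; actives needed confirmation, so some wells reaching 2 SD are inactive.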 A number with no mark means an inactive call."}
{"target gene": "tun (tungus)", "amplicon": "DRSC05592", "raw ATP luminescence, replicate 1": 1.19e5, "raw ATP luminescence, replicate 2": 97417}
{"target gene": "tun (tungus)", "amplicon": "DRSC07127", "raw ATP luminescence, replicate 1": 59017, "raw ATP luminescence, replicate 2": 59653}
{"target gene": "CG42514", "amplicon": "DRSC10428", "raw ATP luminescence, replicate 1": 24197, "raw ATP luminescence, replicate 2": 27413}
{"target gene": "Mnat9 (microtubule-associated Nat9)", "amplicon": "DRSC14325", "raw ATP luminescence, replicate 1": 55600, "raw ATP luminescence, replicate 2": 62620}
{"target gene": "r-l (rudimentary-like)", "amplicon": "DRSC17042", "raw ATP luminescence, replicate 1": 40447, "raw ATP luminescence, replicate 2": 42177}
{"target gene": "CG31211", "amplicon": "DRSC14953", "raw ATP luminescence, replicate 1": 43933, "raw ATP luminescence, replicate 2": 19213}
{"target gene": "CG31211", "amplicon": "DRSC15344", "raw ATP luminescence, replicate 1": 54653, "raw ATP luminescence, replicate 2": 56683}
{"target gene": "CG7840", "amplicon": "DRSC03075", "raw ATP luminescence, replicate 1": 1.06e5, "raw ATP luminescence, replicate 2": 65403}
{"target gene": "msi (musashi)", "amplicon": "DRSC17003", "raw ATP luminescence, replicate 1": 35810, "raw ATP luminescence, replicate 2": 30070}
{"target gene": "Or92a (Odorant receptor 92a)", "amplicon": "DRSC16771", "raw ATP luminescence, replicate 1": 47170, "raw ATP luminescence, replicate 2": 60460}
{"target gene": "CG34301", "amplicon": "DRSC12704", "raw ATP luminescence, replicate 1": 68960, "raw ATP luminescence, replicate 2": 55223}
{"target gene": "RabX1", "amplicon": "DRSC04678", "raw ATP luminescence, replicate 1": 48820, "raw ATP luminescence, replicate 2": 48003}
{"target gene": "CG10029", "amplicon": "DRSC12498", "raw ATP luminescence, replicate 1": 70757, "raw ATP luminescence, replicate 2": 70390}
{"target gene": "CG7655", "amplicon": "DRSC16275", "raw ATP luminescence, replicate 1": 30910, "raw ATP luminescence, replicate 2": 39487}
{"target gene": "CG10947", "amplicon": "DRSC02111", "raw ATP luminescence, replicate 1": 77170, "raw ATP luminescence, replicate 2": 75193}
{"target gene": "ssp3 (short spindle 3)", "amplicon": "DRSC02669", "raw ATP luminescence, replicate 1": 49770, "raw ATP luminescence, replicate 2": 48317}
{"target gene": "ssp3 (short spindle 3)", "amplicon": "DRSC02670", "raw ATP luminescence, replicate 1": 58010, "raw ATP luminescence, replicate 2": 58250}
{"target gene": "SC35 (SR family splicing factor SC35)", "amplicon": "DRSC02502", "raw ATP luminescence, replicate 1": 51100, "raw ATP luminescence, replicate 2": 63877}
{"target gene": "SC35 (SR family splicing factor SC35)", "amplicon": "DRSC03425", "raw ATP luminescence, replicate 1": 65467, "raw ATP luminescence, replicate 2": 65483}
{"target gene": "CAH7 (Carbonic anhydrase 7)", "amplicon": "DRSC15524", "raw ATP luminescence, replicate 1": 54207, "raw ATP luminescence, replicate 2": 49787}
{"target gene": "slou (slouch)", "amplicon": "DRSC17058", "raw ATP luminescence, replicate 1": 55430, "raw ATP luminescence, replicate 2": 43330}
{"target gene": "Atg3 (Autophagy-related 3)", "amplicon": "DRSC10736", "raw ATP luminescence, replicate 1": 18107, "raw ATP luminescence, replicate 2": 14013}
{"target gene": "Alg2 (ALG2, alpha-1,3/1,6-mannosyltransferase)", "amplicon": "DRSC08298", "raw ATP luminescence, replicate 1": 42260, "raw ATP luminescence, replicate 2": 66430}
{"target gene": "CG2663", "amplicon": "DRSC12314", "raw ATP luminescence, replicate 1": 51813, "raw ATP luminescence, replicate 2": 53587}
{"target gene": "Hn (Henna)", "amplicon": "DRSC11184", "raw ATP luminescence, replicate 1": 40197, "raw ATP luminescence, replicate 2": 34777}
{"target gene": "Tbce (Tubulin-binding cofactor E)", "amplicon": "DRSC04897", "raw ATP luminescence, replicate 1": 71107, "raw ATP luminescence, replicate 2": 80140}
{"target gene": "Irc (Immune-regulated catalase)", "amplicon": "DRSC16454", "raw ATP luminescence, replicate 1": 53083, "raw ATP luminescence, replicate 2": 45443}
{"target gene": "Liprin-beta", "amplicon": "DRSC09795", "raw ATP luminescence, replicate 1": 59043, "raw ATP luminescence, replicate 2": 54080}

Ordered by “raw ATP luminescence, replicate 2” (ascending): some entries from above
{"target gene": "Irc (Immune-regulated catalase)", "amplicon": "DRSC16454", "raw ATP luminescence, replicate 1": 53083, "raw ATP luminescence, replicate 2": 45443}
{"target gene": "Tbce (Tubulin-binding cofactor E)", "amplicon": "DRSC04897", "raw ATP luminescence, replicate 1": 71107, "raw ATP luminescence, replicate 2": 80140}
